PMC4427335
Read-outs that look alike come from different tables or passages of the source. Results are given in words; binding and its absence hold for the method and conditions named. Binding seen in cells or lysates may run through a third protein. Some entries that bind do so weakly or less than the wild type. For part of these data: Where a sequence is shown, tags or fusion partners need not be part of it. Values belong to the molecule of their own block, whether it stands above or below them.

Amino acid sequences for entries named in this document (tags omitted). A change or cut given only in a name is not applied to a line headed by its entry. Residues count along the entry.
UniProt P62196: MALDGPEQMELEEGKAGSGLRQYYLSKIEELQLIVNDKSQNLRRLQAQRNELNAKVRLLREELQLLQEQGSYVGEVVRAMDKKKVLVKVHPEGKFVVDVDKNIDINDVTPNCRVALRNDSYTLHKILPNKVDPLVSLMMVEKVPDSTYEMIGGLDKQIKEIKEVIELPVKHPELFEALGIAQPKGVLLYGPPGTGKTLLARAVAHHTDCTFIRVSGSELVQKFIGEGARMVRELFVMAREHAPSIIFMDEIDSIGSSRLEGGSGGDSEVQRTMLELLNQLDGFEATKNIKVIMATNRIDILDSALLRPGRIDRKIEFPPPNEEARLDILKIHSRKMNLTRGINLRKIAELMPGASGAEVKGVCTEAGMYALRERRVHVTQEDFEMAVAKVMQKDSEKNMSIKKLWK
PSMC5-NT: residues 1-151 of P62196
UniProt P45481: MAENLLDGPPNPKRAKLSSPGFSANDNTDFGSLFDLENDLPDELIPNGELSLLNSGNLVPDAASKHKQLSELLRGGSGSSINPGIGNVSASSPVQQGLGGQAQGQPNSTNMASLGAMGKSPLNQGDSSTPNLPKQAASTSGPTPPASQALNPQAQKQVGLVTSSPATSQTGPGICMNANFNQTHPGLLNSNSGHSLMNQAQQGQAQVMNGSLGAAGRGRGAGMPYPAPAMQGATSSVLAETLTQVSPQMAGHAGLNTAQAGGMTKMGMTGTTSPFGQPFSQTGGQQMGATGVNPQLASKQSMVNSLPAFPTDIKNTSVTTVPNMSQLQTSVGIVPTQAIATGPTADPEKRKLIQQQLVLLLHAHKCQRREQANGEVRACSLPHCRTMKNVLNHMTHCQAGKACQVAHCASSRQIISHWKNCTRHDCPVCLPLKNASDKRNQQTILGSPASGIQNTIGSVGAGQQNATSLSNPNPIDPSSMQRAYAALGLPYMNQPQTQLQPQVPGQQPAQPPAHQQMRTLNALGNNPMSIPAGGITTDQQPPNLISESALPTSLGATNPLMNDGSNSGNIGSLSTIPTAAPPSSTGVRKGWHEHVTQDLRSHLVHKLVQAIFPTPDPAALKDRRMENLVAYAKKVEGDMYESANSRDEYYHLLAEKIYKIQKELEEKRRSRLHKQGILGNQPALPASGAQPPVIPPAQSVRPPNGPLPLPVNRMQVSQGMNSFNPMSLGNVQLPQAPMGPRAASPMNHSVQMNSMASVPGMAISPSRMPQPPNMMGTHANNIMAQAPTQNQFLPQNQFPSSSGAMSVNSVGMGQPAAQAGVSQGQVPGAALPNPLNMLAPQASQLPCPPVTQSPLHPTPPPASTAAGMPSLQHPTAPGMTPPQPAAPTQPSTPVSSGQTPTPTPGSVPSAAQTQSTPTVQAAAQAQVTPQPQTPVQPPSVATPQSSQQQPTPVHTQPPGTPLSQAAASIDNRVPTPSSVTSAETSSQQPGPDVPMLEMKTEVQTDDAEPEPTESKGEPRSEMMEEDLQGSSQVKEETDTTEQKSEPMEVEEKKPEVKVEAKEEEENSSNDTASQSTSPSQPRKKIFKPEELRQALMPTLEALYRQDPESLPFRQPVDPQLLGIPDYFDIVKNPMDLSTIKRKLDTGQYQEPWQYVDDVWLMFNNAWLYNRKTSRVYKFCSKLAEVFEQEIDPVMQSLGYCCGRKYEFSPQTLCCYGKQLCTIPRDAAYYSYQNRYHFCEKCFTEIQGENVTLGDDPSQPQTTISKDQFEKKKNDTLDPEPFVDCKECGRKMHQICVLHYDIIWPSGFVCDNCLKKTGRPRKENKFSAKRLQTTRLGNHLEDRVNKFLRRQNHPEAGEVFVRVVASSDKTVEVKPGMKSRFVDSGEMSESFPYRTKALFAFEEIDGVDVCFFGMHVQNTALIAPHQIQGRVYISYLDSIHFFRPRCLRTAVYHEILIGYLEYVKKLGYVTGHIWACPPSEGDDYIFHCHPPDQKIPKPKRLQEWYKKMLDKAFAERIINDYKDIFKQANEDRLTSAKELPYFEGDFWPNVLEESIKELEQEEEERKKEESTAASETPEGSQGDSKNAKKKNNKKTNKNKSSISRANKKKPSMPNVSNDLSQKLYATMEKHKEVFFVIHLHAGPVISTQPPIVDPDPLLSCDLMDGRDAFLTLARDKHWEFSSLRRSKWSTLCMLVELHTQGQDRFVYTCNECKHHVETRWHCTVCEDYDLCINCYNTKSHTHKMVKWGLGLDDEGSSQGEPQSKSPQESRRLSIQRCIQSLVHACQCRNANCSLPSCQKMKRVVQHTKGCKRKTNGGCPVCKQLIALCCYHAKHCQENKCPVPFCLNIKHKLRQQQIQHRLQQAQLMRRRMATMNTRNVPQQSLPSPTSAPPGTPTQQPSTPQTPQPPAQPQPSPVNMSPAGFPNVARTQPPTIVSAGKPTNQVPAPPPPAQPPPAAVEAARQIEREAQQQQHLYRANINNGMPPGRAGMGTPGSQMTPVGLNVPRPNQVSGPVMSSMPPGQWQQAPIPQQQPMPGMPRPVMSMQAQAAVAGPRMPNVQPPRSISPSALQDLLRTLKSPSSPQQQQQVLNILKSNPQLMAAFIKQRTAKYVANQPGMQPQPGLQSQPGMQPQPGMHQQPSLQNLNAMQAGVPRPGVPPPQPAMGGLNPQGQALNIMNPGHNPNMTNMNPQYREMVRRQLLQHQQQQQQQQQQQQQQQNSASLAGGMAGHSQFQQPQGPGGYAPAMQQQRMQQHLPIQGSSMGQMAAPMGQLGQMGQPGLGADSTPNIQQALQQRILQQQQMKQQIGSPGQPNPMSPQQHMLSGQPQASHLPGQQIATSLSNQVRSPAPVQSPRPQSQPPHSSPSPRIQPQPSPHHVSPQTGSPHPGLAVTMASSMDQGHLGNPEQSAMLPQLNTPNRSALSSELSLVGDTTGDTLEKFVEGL
UniProt B2RWS6: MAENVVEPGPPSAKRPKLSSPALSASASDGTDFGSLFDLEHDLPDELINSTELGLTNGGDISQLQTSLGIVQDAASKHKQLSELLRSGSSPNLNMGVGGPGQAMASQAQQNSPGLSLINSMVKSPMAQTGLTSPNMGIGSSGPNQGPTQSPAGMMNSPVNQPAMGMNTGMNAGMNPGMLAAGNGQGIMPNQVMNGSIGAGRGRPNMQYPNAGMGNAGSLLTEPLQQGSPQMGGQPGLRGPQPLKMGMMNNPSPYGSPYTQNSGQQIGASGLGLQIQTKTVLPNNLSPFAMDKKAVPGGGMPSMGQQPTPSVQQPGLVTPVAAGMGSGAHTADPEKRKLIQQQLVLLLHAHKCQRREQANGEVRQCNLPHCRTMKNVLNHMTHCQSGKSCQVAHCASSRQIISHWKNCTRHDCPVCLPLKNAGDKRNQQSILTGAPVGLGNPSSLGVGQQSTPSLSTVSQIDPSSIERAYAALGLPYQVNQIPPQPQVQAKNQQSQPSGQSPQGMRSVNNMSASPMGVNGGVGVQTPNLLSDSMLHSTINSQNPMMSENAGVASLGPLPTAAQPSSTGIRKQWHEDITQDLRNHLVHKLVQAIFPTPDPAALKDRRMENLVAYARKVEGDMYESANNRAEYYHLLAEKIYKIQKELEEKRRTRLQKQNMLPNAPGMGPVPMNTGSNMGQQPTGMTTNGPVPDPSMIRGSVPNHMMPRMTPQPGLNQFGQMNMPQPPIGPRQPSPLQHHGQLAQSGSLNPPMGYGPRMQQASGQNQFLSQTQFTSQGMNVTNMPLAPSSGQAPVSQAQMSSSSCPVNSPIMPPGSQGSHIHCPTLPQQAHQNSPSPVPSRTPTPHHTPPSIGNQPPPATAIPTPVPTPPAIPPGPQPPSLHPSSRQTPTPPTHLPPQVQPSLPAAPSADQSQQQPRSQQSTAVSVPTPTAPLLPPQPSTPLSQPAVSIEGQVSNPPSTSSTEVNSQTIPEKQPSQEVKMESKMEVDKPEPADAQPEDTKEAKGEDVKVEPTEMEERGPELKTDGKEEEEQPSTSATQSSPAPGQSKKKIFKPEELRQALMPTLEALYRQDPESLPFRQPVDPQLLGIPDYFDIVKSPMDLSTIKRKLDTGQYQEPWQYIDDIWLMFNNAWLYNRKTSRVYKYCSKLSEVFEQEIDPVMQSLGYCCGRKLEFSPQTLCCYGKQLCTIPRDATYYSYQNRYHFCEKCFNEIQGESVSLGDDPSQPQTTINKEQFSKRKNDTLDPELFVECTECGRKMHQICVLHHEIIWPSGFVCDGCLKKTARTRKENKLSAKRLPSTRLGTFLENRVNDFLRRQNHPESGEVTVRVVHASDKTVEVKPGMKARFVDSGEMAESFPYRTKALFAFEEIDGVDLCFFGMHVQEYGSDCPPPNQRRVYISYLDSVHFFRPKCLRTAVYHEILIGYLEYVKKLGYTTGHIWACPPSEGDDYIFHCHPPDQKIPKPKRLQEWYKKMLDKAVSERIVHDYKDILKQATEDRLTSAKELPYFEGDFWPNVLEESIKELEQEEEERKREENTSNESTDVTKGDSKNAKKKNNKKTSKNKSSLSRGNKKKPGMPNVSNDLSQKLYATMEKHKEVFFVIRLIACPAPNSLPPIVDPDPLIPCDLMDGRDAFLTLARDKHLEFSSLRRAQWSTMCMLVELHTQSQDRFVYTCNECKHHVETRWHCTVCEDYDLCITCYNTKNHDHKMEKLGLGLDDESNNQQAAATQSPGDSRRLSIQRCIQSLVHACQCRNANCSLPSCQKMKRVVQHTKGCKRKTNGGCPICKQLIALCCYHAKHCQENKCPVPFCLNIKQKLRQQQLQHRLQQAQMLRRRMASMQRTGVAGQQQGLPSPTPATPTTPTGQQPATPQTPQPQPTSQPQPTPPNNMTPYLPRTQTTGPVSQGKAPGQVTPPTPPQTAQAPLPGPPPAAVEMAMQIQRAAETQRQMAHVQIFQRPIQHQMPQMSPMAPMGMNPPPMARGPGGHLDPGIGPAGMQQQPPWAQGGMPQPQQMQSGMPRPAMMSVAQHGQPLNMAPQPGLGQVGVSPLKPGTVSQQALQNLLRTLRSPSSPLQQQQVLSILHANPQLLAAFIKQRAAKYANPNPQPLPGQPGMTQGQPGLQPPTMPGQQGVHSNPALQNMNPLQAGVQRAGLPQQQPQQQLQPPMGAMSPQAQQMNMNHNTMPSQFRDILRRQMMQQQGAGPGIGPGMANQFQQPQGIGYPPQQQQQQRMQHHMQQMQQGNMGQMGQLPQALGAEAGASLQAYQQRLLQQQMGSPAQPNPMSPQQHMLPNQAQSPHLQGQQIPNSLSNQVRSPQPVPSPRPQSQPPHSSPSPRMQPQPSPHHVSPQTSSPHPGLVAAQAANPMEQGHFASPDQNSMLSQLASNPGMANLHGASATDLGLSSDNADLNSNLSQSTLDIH

Columns and labels:
[1] = target: endogenous PSMC5, mouse nucleus accumbens (mouse (endogenous in nucleus accumbens)) (UniProt P62196); assay: co-IP; nuclear fractions of punch-dissected mouse NAc after chronic cocaine (20 mg/kg IP daily for 7 days, 24 hr after the last injection); Nuclear Complex Co-IP kit (Active Motif); immunoprecipitation with anti-PSMC5, anti-CBP, anti-p300 or anti-BRG1; Western blot with anti-FosB/ΔFosB or anti-BRG1; all proteins endogenous
[2] = target: FLAG-tagged PSMC5 (UniProt P62196); assay: co-IP; Neuro 2A cells co-transfected with ΔFosB or ΔFosB-LZM and FLAG-tagged PSMC5 or its mutants; lysed in RIPA buffer two days later; immunoprecipitation with anti-FLAG (nonimmune IgG as control), Protein G beads, 3 hr at 4°C; Western blot with anti-FosB/ΔFosB
[3] = target: PSMC5-NT (UniProt P62196); assay: as above
[4] = substrate: CBP (CREB binding protein), mouse nucleus accumbens (mouse (endogenous in nucleus accumbens)) (UniProt P45481); assay: co-IP; nuclear fractions of punch-dissected mouse NAc after chronic cocaine (20 mg/kg IP daily for 7 days, 24 hr after the last injection); Nuclear Complex Co-IP kit (Active Motif); immunoprecipitation with anti-PSMC5, anti-CBP, anti-p300 or anti-BRG1; Western blot with anti-FosB/ΔFosB or anti-BRG1; all proteins endogenous
[5] = target: BRG1, mouse nucleus accumbens (mouse (endogenous in nucleus accumbens)) (UniProt Q3TKT4); assay: as above
[6] = target: p300, mouse nucleus accumbens (mouse (endogenous in nucleus accumbens)) (UniProt B2RWS6); assay: as above
[7] = target: endogenous PSMC5, mouse nucleus accumbens (mouse (endogenous in nucleus accumbens)) (UniProt P62196); assay: as above; remark: listed apart in the source
[8] = substrate: CBP (CREB binding protein), in Neuro2A cells (mouse (endogenous in Neuro2A)) (UniProt P45481); assay: co-IP; Neuro2A cells transfected with MYC-tagged ΔFosB forms or FLAG-tagged PSMC5 forms; cell extracts immunoprecipitated with anti-CBP or anti-p300 antibody (endogenous CBP, p300); Western blot with anti-MYC or anti-FLAG
[9] = target: p300, in Neuro2A cells (mouse (endogenous in Neuro2A)) (UniProt B2RWS6); assay: as above

Molecule: BRG1, mouse nucleus accumbens (from UniProt Q3TKT4 1-1613)
binding [1]: binds

B3: MYC-tagged ΔFosB (protein, UniProt P13346-2 1-237)
chain: MFQAFPGDYDSGSRCSSSPSAESQYLSSVDSFGSPPTAAASQECAGLGEMPGSFVPTVTAITTSQDLQWLVQPTLISSMAQSQGQPLASQPPAVDPYDMPGTSYSTPGLSAYSTGGASGSGGPSTSTTTSGPVSARPARARPRRPREETLTPEEEEKRRVRRERNKLAAAKCRNRRRELTDRLQAETDQLEEEKAELESEIAELQKEKERLEFVLVAHKPGCKIPYEEGPGPGPLAE
binding [8]: binds | binding [9]: binds

Second part, the molecule after the results:

binding [2]: binds | binding [3]: binds
B1: ΔFosB (pcDNA3.1-ΔFosB) (protein, UniProt P13346-2 1-237)
chain: MFQAFPGDYDSGSRCSSSPSAESQYLSSVDSFGSPPTAAASQECAGLGEMPGSFVPTVTAITTSQDLQWLVQPTLISSMAQSQGQPLASQPPAVDPYDMPGTSYSTPGLSAYSTGGASGSGGPSTSTTTSGPVSARPARARPRRPREETLTPEEEEKRRVRRERNKLAAAKCRNRRRELTDRLQAETDQLEEEKAELESEIAELQKEKERLEFVLVAHKPGCKIPYEEGPGPGPLAE

binding [4]: binds | binding [5]: binds | binding [6]: binds | binding [7]: binds
B2: endogenous ΔFosB, mouse nucleus accumbens (protein, UniProt P13346-2 1-237)
chain: MFQAFPGDYDSGSRCSSSPSAESQYLSSVDSFGSPPTAAASQECAGLGEMPGSFVPTVTAITTSQDLQWLVQPTLISSMAQSQGQPLASQPPAVDPYDMPGTSYSTPGLSAYSTGGASGSGGPSTSTTTSGPVSARPARARPRRPREETLTPEEEEKRRVRRERNKLAAAKCRNRRRELTDRLQAETDQLEEEKAELESEIAELQKEKERLEFVLVAHKPGCKIPYEEGPGPGPLAE
